{"source": "patent US5837282A", "about": "“Ionophore-mediated liposome loading” (priority 1996, dated 1998)", "key": {"[1]": {"details": "for uptake prior to addition of A23187: D/L 0.35, 45 min"}, "[2]": {"details": "SPM/Chol LUVs; i.v., mice"}, "[3]": {"assay": "Drug uptake/leakage after removal of nigericin (spin column, dialysis)", "details": "SPM/Chol LUVs; nigericin 1 ng/μmol lipid; D/L 0.2; 60 °C", "protocol": "Uptake was monitored for LUVs containing 300 mM K2 SO4 at a nigericin concentration of 1 ng/μmol lipid (.box-solid.), and for LUVs which were preincubated with nigericin for 5 min at 60° C., and then passed down a spin column prior to addition of the drug (.circle-solid.).\nThus, an aliquot of nigericin (1 ng NIG/μmol lipid) was added to a sample of SPM/Chol LUVs containing 300 mm KH2 PO4 and the temperature was increased to 60° C. for 5 min to ensure association of nigericin with the lipid. The sample was then exhaustively dialysed at room temperature against 300 mM sucrose for 20 hours, following which an aliquot was passed down a spin column prior to drug loading with VINC (FIG. 10B).\nTo ensure that such was not the case, control uptake experiments were performed on LUVs containing ethylammonium sulfate and amylammonium sulfate which were subjected to the same conditions."}, "[4]": {"details": "DSPC/Chol LUVs, 600 mM K2SO4, 10^4-fold reduction of nigericin, 60 °C"}}, "note": "Like-named read-outs stand apart in the source and are kept apart here.", "data": [{"smiles": "O=C(O)c1cn(C2CC2)c2cc(N3CCNCC3)c(F)cc2c1=O", "note": "[Ciprofloxacin, ciprofloxacin]", "values": [{"measurement": "time of onset of significant leakage of the drug after uptake", "setting": "[1]; DSPC/Chol LUVs, 300 mM CaCl2", "value": "≤ 30", "unit": "min"}, {"measurement": "Retention", "setting": "[1]; DSPC/Chol LUVs, 300 mM CaCl2, D/L 0.3, A23187 0.1 μg/μmol lipid, 60 °C, external 300 mM sucrose", "value": "poor"}, {"measurement": "Retention", "setting": "[1]; DSPC/Chol LUVs, 300 mM CaCl2, D/L 0.3, A23187 1.0 μg/μmol lipid, 60 °C, external 300 mM sucrose", "value": "poor"}, {"measurement": "Retention", "setting": "[1]; DSPC/Chol LUVs, 300 mM MgSO4, D/L 0.34, A23187 1.0 μg/μmol lipid, 60 °C, external 300 mM sucrose", "value": "excellent"}, {"measurement": "stability of uptake", "setting": "[1]; DSPC/Chol LUVs, 300 mM MnSO4, A23187 0.1 μg/μmol lipid, 60 °C, without EDTA, 3 hours", "value": "stable"}, {"measurement": "Retention", "setting": "[1]; DSPC/Chol LUVs, 300 mM MnSO4, D/L 0.27-0.35, A23187 0.1 μg/μmol lipid, 60 °C, external 300 mM sucrose", "value": "excellent"}, {"measurement": "Retention", "setting": "[1]; DSPC/Chol LUVs, 300 mM MnSO4, D/L 0.27-0.35, A23187 0.1 μg/μmol lipid, 60 °C, external 300 mM sucrose + 3 mM EDTA", "value": "excellent"}, {"measurement": "uptake prior to addition of A23187", "setting": "[1]; DSPC/Chol LUVs, 300 mM MnSO4, 60 °C, 3 mM external EDTA", "value": "about 18%"}, {"measurement": "uptake prior to addition of A23187", "setting": "[1]; DSPC/Chol LUVs, 300 mM MnSO4, 60 °C, without EDTA", "value": "about 35%"}, {"measurement": "external pH optimum for uptake via both nigericin and A23187", "setting": "[1]; SPM/Chol LUVs", "value": "~6"}, {"measurement": "Retention", "setting": "[1]; SPM/Chol LUVs, 300 mM MgSO4 pH 6.5, D/L 0.2, A23187 0.1 μg/μmol lipid, 60 °C, external 300 mM sucrose + 15 mM EDTA pH 4.4", "value": "excellent"}, {"measurement": "Retention", "setting": "[1]; SPM/Chol LUVs, 300 mM MgSO4 pH 6.5, D/L 0.2, A23187 0.1 μg/μmol lipid, 60 °C, external 300 mM sucrose + 15 mM EDTA pH 5.9", "value": "excellent"}, {"measurement": "Retention", "setting": "[1]; SPM/Chol LUVs, 300 mM MgSO4 pH 6.5, D/L 0.2, A23187 0.1 μg/μmol lipid, 60 °C, external 300 mM sucrose + 15 mM EDTA pH 7.0", "value": "excellent"}, {"measurement": "Retention", "setting": "[1]; SPM/Chol LUVs, 300 mM MgSO4 pH 6.5, D/L 0.2, A23187 0.1 μg/μmol lipid, 60 °C, external 300 mM sucrose + 20 mM Hepes 15 mM EDTA pH 6.0", "value": "excellent"}, {"measurement": "Retention", "setting": "[1]; SPM/Chol LUVs, 300 mM MgSO4 pH 6.5, D/L 0.2, A23187 0.1 μg/μmol lipid, 60 °C, external 300 mM sucrose + 20 mM Hepes 15 mM EDTA pH 7.0", "value": "excellent"}, {"measurement": "Retention", "setting": "[1]; SPM/Chol LUVs, 300 mM MgSO4 pH 6.5, D/L 0.2, A23187 0.5 μg/μmol lipid, 60 °C, external 300 mM sucrose + 20 mM Hepes 15 mM EDTA pH 6.0", "value": "excellent"}, {"measurement": "Retention", "setting": "[1]; SPM/Chol LUVs, 300 mM MnSO4, D/L 0.2, A23187 0.1 μg/μmol lipid, 60 °C, external 300 mM sucrose + 15 mM EDTA pH 4.4", "value": "excellent"}, {"measurement": "Retention", "setting": "[1]; SPM/Chol LUVs, 300 mM MnSO4, D/L 0.2, A23187 0.1 μg/μmol lipid, 60 °C, external 300 mM sucrose + 15 mM EDTA pH 5.9 (table prints 59)", "value": "excellent"}, {"measurement": "in vivo retention, A23187 system versus K2SO4/nigericin", "setting": "[2]", "value": "superior"}, {"measurement": "in vivo retention, A23187 system versus methylammonium sulfate LUVs", "setting": "[2]", "value": "similar"}, {"measurement": "Retention", "setting": "DSPC/Chol LUVs, 300 mM K2SO4, D/L 0.3, nigericin 1000 ng/μmol lipid, 60 °C, external 300 mM sucrose (text: over 3 hours)", "value": "excellent"}, {"measurement": "Retention", "setting": "DSPC/Chol LUVs, 300 mM K2SO4, D/L 0.3, nigericin 1000 ng/μmol lipid, 60 °C, external 300 mM sucrose (text: over 3 hours), listed as CIPRO", "value": "excellent retention"}, {"measurement": "drug uptake in response to the K+ gradient alone", "setting": "DSPC/Chol LUVs, 300 mM K2SO4, no nigericin, 60 °C", "value": "Little or no drug uptake"}, {"measurement": "rate of uptake", "setting": "[4]", "value": "significant decrease"}, {"measurement": "time required to obtain uptake levels of 80% or greater", "setting": "[4]", "value": "at least 45 min"}, {"measurement": "change in uptake on reducing nigericin by a factor of 10 (0.1 μg/μmol lipid) or 10^3 (1 ng/μmol lipid)", "setting": "DSPC/Chol LUVs, 600 mM K2SO4, 60 °C", "value": "no change in uptake"}, {"measurement": "Retention", "setting": "DSPC/Chol LUVs, 600 mM K2SO4, D/L 0.3, nigericin 1 ng/μmol lipid, 60 °C, external 300 mM sucrose", "value": "excellent"}, {"measurement": "Retention", "setting": "DSPC/Chol LUVs, 600 mM K2SO4, D/L 0.3, nigericin 100 ng/μmol lipid, 60 °C, external 300 mM sucrose", "value": "excellent"}, {"measurement": "Retention", "setting": "DSPC/Chol LUVs, 600 mM K2SO4, D/L 0.37, nigericin 0.1 ng/μmol lipid, 60 °C, external 300 mM sucrose", "value": "excellent"}, {"measurement": "influence of increasing internal salt concentration to 600 mM on uptake", "setting": "DSPC/Chol LUVs, K2SO4, nigericin, 60 °C", "value": "not influenced"}, {"measurement": "Retention", "setting": "SPM/Chol LUVs, 300 mM K2SO4 pH 6.1, D/L 0.2, nigericin 0.5 ng/μmol lipid, 70 °C, external 300 mM sucrose + 20 mM Hepes pH 5.5", "value": "excellent"}, {"measurement": "Retention", "setting": "SPM/Chol LUVs, 300 mM K2SO4 pH 6.1, D/L 0.2, nigericin 0.5 ng/μmol lipid, 70 °C, external 300 mM sucrose + 20 mM Hepes pH 7.0", "value": "poor"}, {"measurement": "Retention", "setting": "SPM/Chol LUVs, 300 mM K2SO4 pH 6.1, D/L 0.2, nigericin 1 ng/μmol lipid, 60 °C, external 300 mM sucrose + 20 mM Hepes pH 6.2", "value": "excellent"}, {"measurement": "Retention", "setting": "SPM/Chol LUVs, 300 mM K2SO4 pH 6.1, D/L 0.2, nigericin 1 ng/μmol lipid, 60 °C, external 300 mM sucrose + 20 mM Hepes pH 7.0", "value": "excellent"}, {"measurement": "Retention", "setting": "SPM/Chol LUVs, 300 mM K2SO4 pH 7.4, D/L 0.2, nigericin 1 ng/μmol lipid, 60 °C, external 300 mM sucrose", "value": "fair"}, {"measurement": "Retention", "setting": "SPM/Chol LUVs, 300 mM K2SO4 pH 7.4, D/L 0.2, nigericin 1 ng/μmol lipid, 60 °C, external 300 mM sucrose + 20 mM Hepes pH 6.0", "value": "excellent"}, {"measurement": "Retention", "setting": "SPM/Chol LUVs, 300 mM K2SO4 pH 7.4, D/L 0.2, nigericin 1 ng/μmol lipid, 60 °C, external 300 mM sucrose + 20 mM Hepes pH 7.0", "value": "excellent"}, {"measurement": "time to achieve 100% uptake", "setting": "SPM/Chol LUVs, HEPES-buffered sucrose pH 6.2, 60 °C, nigericin 1 ng/μmol lipid", "value": 60, "unit": "min"}, {"measurement": "time to achieve 100% uptake", "setting": "SPM/Chol LUVs, external pH 5.5, 70 °C, nigericin 0.5 ng/μmol lipid", "value": 90, "unit": "min"}, {"measurement": "rate of uptake after passing LUVs down a G-50 spin column prior to drug addition", "setting": "[3]", "value": "significantly reduced"}]}]}
